# Reference: patent US20030129629A1, “Methods and compositions for the identification, assessment, prevention, and therapy of human cancers” (Millennium Pharmaceuticals, Inc., priority 2000, published 2003)
# Test system: 60 cancer cell lines (NCI 60 cancer cell line series)
# Assay: NCI-DTP in vitro cancer screen, sulforhodamine B (SRB) growth inhibition, 48 hour exposure
# Assay type: cell-based, human
# Description: Cancer Cell Line Preparation. Sixty cancer cell lines were obtained from the National Cancer Institute Developmental Therapeutics Program (NCI-DTP). Procedures for growing cells and testing compounds have been described previously (Scudiero et al., Cancer Res. 1988, 48:4827-4833; Stinson et al., Anticancer Res.; Myers et al., Electrophoresis 1997, 18:647-653). Cells are plated on day 0 at a density individualized for each cell line so that they will generally be sub-confluent at the end of the assay period. On day 1, a compound is added in the format for a duplicate-well, 5-dose, ten-fold interval dose response study.
# No-drug, no-cell and no-growth controls are included. On day 3 the cells are processed for staining with sulforhodamine B (SRB), which reflects the amount of cell mass present at the end of a 48 hour exposure to the test agent. From dose response curves based on the SRB data, various parameters can be determined. […] More precisely, the quantity used in the calculation to be described is the potency measure −log{GI50}.
# Activity database (A). […] This subset of compounds was selected from the larger 23,000 compound database available from the DTP. The compounds were selected on the basis of their known mechanism of action and chemical structure. The average potency −log{GI50} was extracted from the comma-delimited text files available through the Web at http://www.nci.nih.gov/intra/lmp/jnwbio.html. Subsequently, these −log{GI50} values were inspected manually and classified as indicating either Low, Medium or High sensitivity to each compound.
# [1] = number of the cell lines classified High (3) sensitivity
# [2] = number of the cell lines classified Low (1) sensitivity
# [3] = number of the cell lines classified Medium (2) sensitivity
SMILES,1 # of Low,2 # Medium,3 # High,3 # High [1],1 # of Low [2],2 # Medium [3]
OC[C@H]1O[C@@H](n2cnc3c2N=CNC[C@H]3O)C[C@@H]1O [2′-deoxycoformycin],9,43,8,,,
O=c1[nH]cc(F)c(=O)[nH]1 [5-Fluorouracil],,,,8,13,39
Sc1ncnc2nc[nH]c12 [6-mercaptopurine],,,,7,12,41
COc1cccc2c1C(=O)c1c(O)c3c(c(O)c1C2=O)C[C@@](O)(C(=O)CO)C[C@@H]3O[C@H]1C[C@H](N)[C@H](O)[C@H](C)O1 [Adriamycin],,,,5,7,48
Nc1ccn([C@@H]2O[C@H](CO)[C@@H](O)[C@@H]2O)c(=O)n1 [AraC],17,33,10,,,
O=NN(CCCl)C(=O)NCCCl [BCNU],13,37,10,,,
CS(=O)(=O)OCCCCOS(C)(=O)=O [Busulfan],,,,8,24,28
O=C(O)CCCc1ccc(N(CCCl)CCCl)cc1 [Chlorambucil],,,,9,24,27
COc1cccc2c1C(=O)c1c(O)c3c(c(O)c1C2=O)C[C@@](O)(C(C)=O)C[C@@H]3O[C@H]1C[C@H](N)[C@H](O)[C@H](C)O1 [Daunorubicin],,,,6 and 10,24 and 20,30
COc1cccc2c1C(=O)c1c(O)c3c(c(O)c1C2=O)C[C@@](O)(C(=O)CO)C[C@@H]3OC1CC(N)CC(C)O1.Cl (some centres unmarked) [Deoxydoxorubicin],,,,7,11 and 9,42 and 44
COc1cc([C@@H]2c3cc4c(cc3[C@@H](O[C@@H]3O[C@@H]5CO[C@@H](C)O[C@H]5[C@H](O)[C@H]3O)[C@H]3COC(=O)[C@H]23)OCO4)cc(OC)c1O [Etoposide],,,,10,12,38
NC(=O)NO [Hydroxyurea],,,,11,15,34
N[C@@H](Cc1ccc(N(CCCl)CCCl)cc1)C(=O)O [Melphalan],,,,9,5,46
CN(Cc1cnc2nc(N)nc(N)c2n1)c1ccc(C(=O)N[C@@H](CCC(=O)O)C(=O)O)cc1 [Methotrexate],,,,15 and 19,17 and 15,28 and 26
O=C1c2c(O)ccc(O)c2C(=O)c2c(NCCNCCO)ccc(NCCNCCO)c21 [Mitoxantrone],,,,17,18,25
"CC(=O)O[C@H]1C(=O)[C@@]2(C)[C@H]([C@H](OC(=O)c3ccccc3)[C@]3(O)C[C@H](OC(=O)[C@H](O)[C@@H](NC(=O)c4ccccc4)c4ccccc4)C(C)=C1C3(C)C)[C@]1(OC(C)=O)CO[C@@H]1C[C@@H]2O [TAXOL, paclitaxel]",,,,13 and 10 and 9,11 and 14 and 8,36 and 43
COc1cc([C@@H]2c3cc4c(cc3[C@@H](O[C@@H]3O[C@@H]5CO[C@@H](c6cccs6)O[C@H]5[C@H](O)[C@H]3O)[C@H]3COC(=O)[C@H]23)OCO4)cc(OC)c1O [Teniposide],,,,7,5,48
CC[C@]1(O)C[C@@H]2CN(CCc3c([nH]c4ccccc34)[C@@](C(=O)OC)(c3cc4c(cc3OC)N(C)[C@H]3[C@@](O)(C(=O)OC)[C@H](OC(C)=O)[C@]5(CC)C=CCN6CC[C@]43[C@@H]65)C2)C1 [Vinblastine sulfate],,,,15 and 14,9 and 8,36 and 38
CC[C@]1(O)C[C@H]2CN(CCc3c([nH]c4ccccc34)[C@@](C(=O)OC)(c3cc4c(cc3OC)N(C=O)[C@H]3[C@@](O)(C(=O)OC)[C@H](OC(C)=O)[C@]5(CC)C=CCN6CC[C@]43[C@@H]65)C2)C1 [Vincristine sulfate],,,,20,7,33
"N.N.[Cl][Pt][Cl] [cisplatin, cis-Diamminedichloroplatinum (II)]",,,,8 and 12,,42 and 41 and 32

# Where “and” joins values, the source holds several entries; their conditions need not be identical. Equal values may be shown once. Where a name gives a salt, the structure may show the parent alone. Read-outs that look alike come from different tables or passages of the source.
